# Laboratory results: PubChem BioAssay AID1671195 (Yale University, 2021)
# Aim: 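Knockdowns that increase or decrease uptake of fluorescent LDL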 (primary screen)
# Cells: human Huh7 hepatoma cells
# Knock-down reagent: siRNA pool against human genes, 18 nM
# Time to read-out: about 2 to 2.5 days of knockdown, then 8 h LDL uptake
# Conditions: DiI-labelled LDL at 30 µg/ml for 8 h, in lipoprotein-deficient serum medium
# Measurement: 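Fluorescent LDL signal imaged in cells, scaled to the plate median, robust z-score for each replicate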
# Reading the numbers: robust z-score: higher = more LDL uptake after knockdown
# Call rule: 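Active when two or more replicates show a robust z-score above 2 or below -2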
# Shown is an unselected part of about 22,000 reagents. Of all reagents, about 1,510 (6.9%) are marked active. 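Active includes knockdowns raising or lowering LDL uptake; positive z-scores mean more uptake, negative mean less.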 The numbers tell different reagents against one gene apart.
The first 7 entries as a preview:
gene,reagent no.,"robust z-score, replicate 1","robust z-score, replicate 2","robust z-score, replicate 3",call
ZNF219 (GeneID 51222),1,0.681,0.0396,-0.469,inactive
LOC440360 (retired record) (GeneID 440360),1,-0.316,-0.311,-0.52,inactive
MAF (GeneID 4094),1,0.0627,1.22,0.12,inactive
TXLNGY (GeneID 246126),1,-0.222,-1.08,-0.715,inactive
TXLNGY (GeneID 246126),2,-1.53,-1.8,-1.32,inactive
MLX (GeneID 6945),1,-0.125,-0.256,-0.305,inactive
RTN4 (GeneID 57142),1,0.172,-0.62,-0.368,inactive

Main list, repeating the preview:
gene,reagent no.,"robust z-score, replicate 1","robust z-score, replicate 2","robust z-score, replicate 3",call
ZNF219 (GeneID 51222),1,0.681,0.0396,-0.469,inactive
LOC440360 (retired record) (GeneID 440360),1,-0.316,-0.311,-0.52,inactive
MAF (GeneID 4094),1,0.0627,1.22,0.12,inactive
TXLNGY (GeneID 246126),1,-0.222,-1.08,-0.715,inactive
TXLNGY (GeneID 246126),2,-1.53,-1.8,-1.32,inactive
MLX (GeneID 6945),1,-0.125,-0.256,-0.305,inactive
RTN4 (GeneID 57142),1,0.172,-0.62,-0.368,inactive
APBA1 (GeneID 320),1,-1.38,-0.979,-1.07,inactive
CENPK (GeneID 64105),1,-1.24,-0.784,-0.667,inactive
ANKRD1 (GeneID 27063),1,-0.746,-0.415,-0.63,inactive
C16orf82 (GeneID 162083),1,2.55,0.896,1.1,inactive
ZNF777 (GeneID 27153),1,-0.95,0.627,0.0384,inactive
GGTLC2 (GeneID 91227),1,-0.385,-0.76,-1.02,inactive
RERGL (GeneID 79785),1,1.25,1.7,1.16,inactive
ABCD2 (GeneID 225),1,-0.112,0.186,0.143,inactive
ZFP69B (GeneID 65243),1,-0.359,-0.401,-0.0172,inactive
LOC400134 (retired record) (GeneID 400134),1,0.493,-0.0915,0.111,inactive
TMSB15A (GeneID 11013),1,0.723,1.35,1.45,inactive
SLC16A3 (GeneID 9123),1,-1.39,-1.11,-0.966,inactive
SENP8 (GeneID 123228),1,0.325,-0.109,1.42,inactive
LINC00342 (GeneID 150759),1,-0.534,-0.594,-1.34,inactive
CUL5 (GeneID 8065),1,0.101,-0.465,-0.427,inactive
SLC6A13 (GeneID 6540),1,-1.18,-1,-0.749,inactive
DSG3 (GeneID 1830),1,-0.978,-0.837,-0.856,inactive
ETFB (GeneID 2109),1,-0.511,0.0142,-0.835,inactive
SPEG (GeneID 10290),1,-1.59,-1.29,-1.68,inactive
NDC80 (GeneID 10403),1,-0.81,1.17,1.16,inactive
DGUOK (GeneID 1716),1,3.05,0.894,2.44,active
EPN3 (GeneID 55040),1,1.08,0.639,0.479,inactive
INSM2 (GeneID 84684),1,0.543,0.926,1.29,inactive
ATP5MC3 (GeneID 518),1,-0.868,-1.38,-1.1,inactive
GATAD1 (GeneID 57798),1,-0.752,-0.952,-0.0912,inactive
LHX5 (GeneID 64211),1,0.911,2.11,1.15,inactive
RAF1 (GeneID 5894),1,0.216,0.708,0.471,inactive
ATP23 (GeneID 91419),1,0.41,3.19,2.02,active
DCTN5 (GeneID 84516),1,-1.75,-1.26,-1.01,inactive
MLLT11 (GeneID 10962),1,-0.29,1.2,-1.39,inactive
TNNI1 (GeneID 7135),1,0.165,-1.56,1.12,inactive
DPF1 (GeneID 8193),1,0.903,0.913,1.59,inactive
TFB2M (GeneID 64216),1,2.4,2.51,2.82,active
LOC441269 (retired record) (GeneID 441269),1,0.282,0.399,0.868,inactive
ADGRL2 (GeneID 23266),1,-0.564,-0.887,-0.461,inactive
MIMS2 (GeneID 116151),1,-1.51,-0.759,-0.692,inactive
PIK3CA (GeneID 5290),1,-1.42,-1.63,-1.78,inactive
ORM2 (GeneID 5005),1,0.26,0.382,0.571,inactive
PDPK1 (GeneID 5170),1,-0.73,-1.17,-0.267,inactive
LOC144762 (retired record) (GeneID 144762),1,0.315,0.177,0.381,inactive
RHBDD2 (GeneID 57414),1,0.947,1.06,1.05,inactive
THOC3 (GeneID 84321),1,-0.582,-0.961,-0.942,inactive
BMP2KL (GeneID 347359),1,0.474,0.7,0.74,inactive
BARD1 (GeneID 580),1,-0.688,-0.303,-0.0653,inactive
PNO1 (GeneID 56902),1,-1.29,0.34,-0.656,inactive
ASB3 (GeneID 51130),1,0.293,-0.672,0.108,inactive
VAX2 (GeneID 25806),1,1.27,0.398,-0.129,inactive
LINC01994 (GeneID 401103),1,-0.159,-0.264,-0.144,inactive
MAP2K7 (GeneID 5609),1,-0.149,-1.15,-0.779,inactive
PFKM (GeneID 5213),1,-1.08,-0.72,-1.13,inactive
LOC389328 (retired record) (GeneID 389328),1,-0.642,-0.143,-0.607,inactive
GPR108 (GeneID 56927),1,0.214,1.65,0.505,inactive
KCNH6 (GeneID 81033),1,-1.08,-1.56,-0.645,inactive
MSX1 (GeneID 4487),1,0.116,0.581,0.732,inactive
RNF7 (GeneID 9616),1,-0.126,-0.534,0.23,inactive
SLC27A1 (GeneID 376497),1,-0.0843,-0.62,-1.18,inactive
KDM5B (GeneID 10765),1,-1.37,-1.3,-1.22,inactive
KCNV1 (GeneID 27012),1,0.715,0.112,0.201,inactive
XIAP (GeneID 331),1,0.584,0.231,0.255,inactive
LOC389657 (retired record) (GeneID 389657),1,0.0138,-0.0906,-0.217,inactive
ATP6V1B1 (GeneID 525),1,-0.689,-0.0825,-0.867,inactive
